The source gives many values for each of these; only a part stands here.
How the values were obtained:
Bacteria mixture 3 = assay: Repetitive stress test of calcium carbonate slurry with bacteria mixture 3, semiquantitative evaluation (example 6); assay type: cell-based; design: key: 0: No growth; Minimal growth, 1 to 10 colonies visible over the entire streak; 2: Light growth, maximum 100 colonies; Moderate growth, maximum 300 to 400 colonies; Uniform growth, >400 colonies, single colonies still clearly recognizable; 5: Heavy growth, too many colonies to count, but no growth over the entire streak; 6: Full growth, barely any single colonies still apparent, growth over the entire streak; conditions: 6 d
Method: The calcium carbonate slurry was stored at 60° C. for 3 days prior to addition of the guanidinium salts for heat sterilization. The slurry thus treated was then admixed and homogenized with different concentrations of guanidine salts. The slurry prepared in this way was inoculated repeatedly with bacteria strains of practical relevance (bacteria mixture 3).
• Alcaligenes faecalis NCIMB 13145 • Aeromonas hydrophila DSM 6173 • Escherichia coli DSM 13631 • Burkholderia cepacia DSM 9241 • Staphylococcus aureus DSM 799 • Pseudomonas aeruginosa DSM 50071 • Pseudomonas putida DSM 13624
(§1) The inoculum was added to the respective sample in each inoculation at 2% (v/w) as a fresh cell suspension in a physiological saline solution (0.9% NaCl). The cell count of the added inoculum in example 1 was 10^5/ml, in examples 2 to 5 10^9/ml, and in example 6 10^6/ml, each in equal portions consisting of the individual bacterial strains. The cell suspension was produced by growing the individual bacteria at 30° C. for 24 h in liquid culture on a shaker. The medium used to grow the bacteria from bacteria mixture 1 was Müller-Hinton liquid medium. Bacteria from bacteria mixture 2 were grown in Müller-Hinton liquid medium that had been adjusted to pH 9.5-9.7 with an alkaline buffer solution beforehand. After growing, the individual liquid cultures were centrifuged, and the cells were resuspended in physiological saline solution. In order to adjust the mixture to the desired cell count, the individual bacteria suspensions, if necessary, were diluted accordingly before being combined with saline solution. The cell count of the inoculum was determined in each case by chamber counting.
(§2) In examples 2 to 6, what is called a repetitive stress test with bacteria was conducted by inoculating the samples at particular time intervals repeatedly with a bacteria suspension having a cell count of 10^9/ml (2% v/w) and monitoring the evolution of the bacteria by a semiquantitative evaluation method. After each inoculation, the samples were incubated at 30° C. for 6 days (bacteria mixture 1 and 3) or 7 and 14 days (bacteria mixture 2), and after these periods bacterial infestation was evaluated semiquantitatively in each case. For this purpose, an aliquot was taken from each sample after homogenization using a sterile plastic inoculation loop (10 μl) and streaked evenly on agar plates (bacteria mixture 1 and 3 on tryptic soy agar, bacteria mixture 2 on DSMZ 31 alkaline nutrient agar). The streaked agar plates were then incubated at 30° C. for 48 h (bacteria mixture 1 and 3) or 5 to 7 days (bacteria mixture 2). After incubation, the bacterial colonies grown on the agar plates were visually evaluated and quantified according to the following scheme:
(§3) A total of 3 inoculation cycles was performed in each repetitive stress test.
Inoculation 2% (w/v) with Bacteria Mixture 3, 10^6 CFU/ml

[1] = test system: Bacteria mixture 2 (alkaliphilic bacteria of the Nesterenkonia & Alkalibacterium genus); assay: Repetitive stress test of paints with bacteria mixture 2, semiquantitative evaluation (examples 4 and 5); assay type: cell-based; design: key: 0: No growth; Minimal growth, 1 to 10 colonies visible over the entire streak; 2: Light growth, maximum 100 colonies; Moderate growth, maximum 300 to 400 colonies; Uniform growth, >400 colonies, single colonies still clearly recognizable; 5: Heavy growth, too many colonies to count, but no growth over the entire streak; 6: Full growth, barely any single colonies still apparent, growth over the entire streak; conditions: Table 5, Paint 3, pH 11.2
Excerpt: Paints 1 to 3 were mixed and homogenized with various concentrations of the guanidinium salts to be tested.
The batches obtained of the paint thus prepared were inoculated repeatedly with a mixture of different wild-type bacterial strains that are of practical relevance with regard to contamination. These bacteria had previously been isolated from commercial emulsion paints containing conventional preservatives (bacteria mixture 1, Pseudomonas genus), which are microbially contaminated in practice, and commercial so-called preservative-free alkaline emulsion paints (bacteria mixture 2, alkaliphilic bacteria of the Nesterenkonia & Alkalibacterium genus), which are microbially contaminated in practice.
• Nesterenkonia sp. DSM 108520 • Nesterenkonia sp. DSM 108521 • Alkalibacterium pelagium DSM 108522 • Nesterenkonia massiliensis DSM 110679 • Nesterenkonia sp. DSM 108519
as §1, §2, §3
Inoculation 2% (w/v) with Bacteria Mixture 2, 10^9 CFU/ml

N=C(N)N.N=C(N)N.O=C(O)O [guanidine carbonate]
Bacterial growth after inoculation (Bacteria mixture 3; Table 6, +0.025% guanidine carbonate (164 ppm guanidine), pH 9.3, 1. inoculation): 6 | Bacterial growth after inoculation (Bacteria mixture 3; Table 6, +0.025% guanidine carbonate (164 ppm guanidine), pH 9.3, 2. inoculation): 6 | Bacterial growth after inoculation (Bacteria mixture 3; Table 6, +0.025% guanidine carbonate (164 ppm guanidine), pH 9.3, 3. inoculation): 6 | Bacterial growth after inoculation (Bacteria mixture 3; Table 6, +0.05% guanidine carbonate (328 ppm guanidine), pH 9.4, 1. inoculation): 3 (Moderate growth, maximum 300 to 400 colonies) | Bacterial growth after inoculation (Bacteria mixture 3; Table 6, +0.05% guanidine carbonate (328 ppm guanidine), pH 9.4, 2. inoculation): 5 | Bacterial growth after inoculation (Bacteria mixture 3; Table 6, +0.05% guanidine carbonate (328 ppm guanidine), pH 9.4, 3. inoculation): 6 | Bacterial growth after inoculation (Bacteria mixture 3; Table 6, +0.075% guanidine carbonate (492 ppm guanidine), pH 9.4, 1. inoculation): 0 | Bacterial growth after inoculation (Bacteria mixture 3; Table 6, +0.075% guanidine carbonate (492 ppm guanidine), pH 9.4, 2. inoculation): 3 (Moderate growth, maximum 300 to 400 colonies) | Bacterial growth after inoculation (Bacteria mixture 3; Table 6, +0.075% guanidine carbonate (492 ppm guanidine), pH 9.4, 3. inoculation): 6 | Bacterial growth after inoculation (Bacteria mixture 3; Table 6, +0.1% guanidine carbonate (656 ppm guanidine), pH 9.5, 1. inoculation): 0 | Bacterial growth after inoculation (Bacteria mixture 3; Table 6, +0.1% guanidine carbonate (656 ppm guanidine), pH 9.5, 2. inoculation): 0 | Bacterial growth after inoculation (Bacteria mixture 3; Table 6, +0.1% guanidine carbonate (656 ppm guanidine), pH 9.5, 3. inoculation): 0 | Bacterial growth after inoculation ([1]; +0.1% guanidine carbonate (656 ppm guanidine), 1. inoculation, 7 d): 3 (Moderate growth, maximum 300 to 400 colonies) | Bacterial growth after inoculation ([1]; +0.1% guanidine carbonate (656 ppm guanidine), 1. inoculation, 14 d): 0 | Bacterial growth after inoculation ([1]; +0.1% guanidine carbonate (656 ppm guanidine), 2. inoculation, 7 d): 3 (Moderate growth, maximum 300 to 400 colonies) | Bacterial growth after inoculation ([1]; +0.1% guanidine carbonate (656 ppm guanidine), 2. inoculation, 14 d): 0 | Bacterial growth after inoculation ([1]; +0.1% guanidine carbonate (656 ppm guanidine), 3. inoculation, 7 d): 5 | Bacterial growth after inoculation ([1]; +0.1% guanidine carbonate (656 ppm guanidine), 3. inoculation, 14 d): 0 | Bacterial growth after inoculation ([1]; +0.15% guanidine carbonate (984 ppm guanidine), 3. inoculation, 7 d): 4 (Uniform growth, >400 colonies, single colonies still clearly recognizable) | Bacterial growth after inoculation ([1]; +0.15% guanidine carbonate (984 ppm guanidine), 3. inoculation, 14 d): 0 | Bacterial growth after inoculation ([1]; +0.2% guanidine carbonate (1312 ppm guanidine), 1. inoculation, 7 d): 3 (Moderate growth, maximum 300 to 400 colonies) | Bacterial growth after inoculation ([1]; +0.2% guanidine carbonate (1312 ppm guanidine), 1. inoculation, 14 d): 0 | Bacterial growth after inoculation ([1]; +0.2% guanidine carbonate (1312 ppm guanidine), 2. inoculation, 7 d): 3 (Moderate growth, maximum 300 to 400 colonies) | Bacterial growth after inoculation ([1]; +0.2% guanidine carbonate (1312 ppm guanidine), 2. inoculation, 14 d): 0 | Bacterial growth after inoculation ([1]; +0.2% guanidine carbonate (1312 ppm guanidine), 3. inoculation, 7 d): 3 (Moderate growth, maximum 300 to 400 colonies) | Bacterial growth after inoculation ([1]; +0.2% guanidine carbonate (1312 ppm guanidine), 3. inoculation, 14 d): 0 | Bacterial growth after inoculation ([1]; +0.25% guanidine carbonate (1640 ppm guanidine), 1. inoculation, 7 d): 0/0 | Bacterial growth after inoculation ([1]; +0.25% guanidine carbonate (1640 ppm guanidine), 1. inoculation, 14 d): 0/0 | Bacterial growth after inoculation ([1]; +0.25% guanidine carbonate (1640 ppm guanidine), 2. inoculation, 7 d): 1 (Minimal growth, 1 to 10 colonies visible over the entire streak) | Bacterial growth after inoculation ([1]; +0.25% guanidine carbonate (1640 ppm guanidine), 2. inoculation, 14 d): 0 | Bacterial growth after inoculation ([1]; +0.25% guanidine carbonate (1640 ppm guanidine), 3. inoculation, 7 d): 3 (Moderate growth, maximum 300 to 400 colonies) | Bacterial growth after inoculation ([1]; +0.25% guanidine carbonate (1640 ppm guanidine), 3. inoculation, 14 d): 0 | Bacterial growth after inoculation ([1]; +0.3% guanidine carbonate (1968 ppm guanidine), 1. inoculation, 7 d): 0/0 | Bacterial growth after inoculation ([1]; +0.3% guanidine carbonate (1968 ppm guanidine), 1. inoculation, 14 d): 0/0 | Bacterial growth after inoculation ([1]; +0.3% guanidine carbonate (1968 ppm guanidine), 2. inoculation, 7 d): 1 (Minimal growth, 1 to 10 colonies visible over the entire streak) | Bacterial growth after inoculation ([1]; +0.3% guanidine carbonate (1968 ppm guanidine), 2. inoculation, 14 d): 0 | Bacterial growth after inoculation ([1]; +0.3% guanidine carbonate (1968 ppm guanidine), 3. inoculation, 7 d): 3 (Moderate growth, maximum 300 to 400 colonies) | Bacterial growth after inoculation ([1]; +0.3% guanidine carbonate (1968 ppm guanidine), 3. inoculation, 14 d): 0 | Bacterial growth after inoculation ([1]; +0.4% guanidine carbonate (2624 ppm guanidine), 1. inoculation, 7 d): 0/0 | Bacterial growth after inoculation ([1]; +0.4% guanidine carbonate (2624 ppm guanidine), 1. inoculation, 14 d): 0/0 | Bacterial growth after inoculation ([1]; +0.4% guanidine carbonate (2624 ppm guanidine), 2. inoculation, 7 d): 1 (Minimal growth, 1 to 10 colonies visible over the entire streak) | Bacterial growth after inoculation ([1]; +0.4% guanidine carbonate (2624 ppm guanidine), 2. inoculation, 14 d): 0 | Bacterial growth after inoculation ([1]; +0.4% guanidine carbonate (2624 ppm guanidine), 3. inoculation, 7 d): 2 (Light growth, maximum 100 colonies) | Bacterial growth after inoculation ([1]; +0.4% guanidine carbonate (2624 ppm guanidine), 3. inoculation, 14 d): 0 | Bacterial growth after inoculation ([1]; +0.5% guanidine carbonate (3280 ppm guanidine), 1. inoculation, 7 d): 0/0 | Bacterial growth after inoculation ([1]; +0.5% guanidine carbonate (3280 ppm guanidine), 1. inoculation, 14 d): 0/0 | Bacterial growth after inoculation ([1]; +0.5% guanidine carbonate (3280 ppm guanidine), 2. inoculation, 7 d): 0/0 | Bacterial growth after inoculation ([1]; +0.5% guanidine carbonate (3280 ppm guanidine), 2. inoculation, 14 d): 0/0 | Bacterial growth after inoculation ([1]; +0.5% guanidine carbonate (3280 ppm guanidine), 3. inoculation, 7 d): 1 (Minimal growth, 1 to 10 colonies visible over the entire streak) | Bacterial growth after inoculation ([1]; +0.5% guanidine carbonate (3280 ppm guanidine), 3. inoculation, 14 d): 0 | Bacterial growth after inoculation ([1]; +0.6% guanidine carbonate (3936 ppm guanidine), 1. inoculation, 7 d): 0/0 | Bacterial growth after inoculation ([1]; +0.6% guanidine carbonate (3936 ppm guanidine), 1. inoculation, 14 d): 0/0 | Bacterial growth after inoculation ([1]; +0.6% guanidine carbonate (3936 ppm guanidine), 2. inoculation, 7 d): 0/0 | Bacterial growth after inoculation ([1]; +0.6% guanidine carbonate (3936 ppm guanidine), 2. inoculation, 14 d): 0/0 | Bacterial growth after inoculation ([1]; +0.6% guanidine carbonate (3936 ppm guanidine), 3. inoculation, 7 d): 2 (Light growth, maximum 100 colonies) | Bacterial growth after inoculation ([1]; +0.6% guanidine carbonate (3936 ppm guanidine), 3. inoculation, 14 d): 0 | Bacterial growth after inoculation ([1]; +0.7% guanidine carbonate (4592 ppm guanidine), 1. inoculation, 7 d): 0/0 | Bacterial growth after inoculation ([1]; +0.7% guanidine carbonate (4592 ppm guanidine), 1. inoculation, 14 d): 0/0 | Bacterial growth after inoculation ([1]; +0.7% guanidine carbonate (4592 ppm guanidine), 2. inoculation, 7 d): 0/0 | Bacterial growth after inoculation ([1]; +0.7% guanidine carbonate (4592 ppm guanidine), 2. inoculation, 14 d): 0/0 | Bacterial growth after inoculation ([1]; +0.7% guanidine carbonate (4592 ppm guanidine), 3. inoculation, 7 d): 0/0 | Bacterial growth after inoculation ([1]; +0.7% guanidine carbonate (4592 ppm guanidine), 3. inoculation, 14 d): 0/0 | Bacterial growth after inoculation ([1]; +0.8% guanidine carbonate (5248 ppm guanidine), 1. inoculation, 7 d): 0/0 | Bacterial growth after inoculation ([1]; +0.8% guanidine carbonate (5248 ppm guanidine), 1. inoculation, 14 d): 0/0 | Bacterial growth after inoculation ([1]; +0.8% guanidine carbonate (5248 ppm guanidine), 2. inoculation, 7 d): 0/0 | Bacterial growth after inoculation ([1]; +0.8% guanidine carbonate (5248 ppm guanidine), 2. inoculation, 14 d): 0/0 | Bacterial growth after inoculation ([1]; +0.8% guanidine carbonate (5248 ppm guanidine), 3. inoculation, 7 d): 0/0 | Bacterial growth after inoculation ([1]; +0.8% guanidine carbonate (5248 ppm guanidine), 3. inoculation, 14 d): 0/0 | Bacterial growth after inoculation ([1]; +1.0% guanidine carbonate (6560 ppm guanidine), 1. inoculation, 7 d): 0/0 | Bacterial growth after inoculation ([1]; +1.0% guanidine carbonate (6560 ppm guanidine), 1. inoculation, 14 d): 0/0 | Bacterial growth after inoculation ([1]; +1.0% guanidine carbonate (6560 ppm guanidine), 2. inoculation, 7 d): 0/0 | Bacterial growth after inoculation ([1]; +1.0% guanidine carbonate (6560 ppm guanidine), 2. inoculation, 14 d): 0/0 | Bacterial growth after inoculation ([1]; +1.0% guanidine carbonate (6560 ppm guanidine), 3. inoculation, 7 d): 0/0 | Bacterial growth after inoculation ([1]; +1.0% guanidine carbonate (6560 ppm guanidine), 3. inoculation, 14 d): 0/0

— patent publication US20260265538A1, “Aqueous Industrial Product Stabilized Against Microbial Contamination” (Thor GmbH, priority 2023, published 2026)
